Data taken from paper PMC12667553, “TWF2 Drives Tumor Progression and Sunitinib Resistance in Renal Cell Carcinoma through Hippo Signaling Suppression” (Advanced Science, 2025).
These are yes or no findings as the source states them, for the method shown. In cells and extracts the contact can be indirect. These calls come from enrichment with a bait or labelling near it, and not all partners need be listed. Tags and fused reporters may be left off the sequences shown.

By UniProt entry, the sequences of proteins in these tests, tags left out.
UniProt P46937: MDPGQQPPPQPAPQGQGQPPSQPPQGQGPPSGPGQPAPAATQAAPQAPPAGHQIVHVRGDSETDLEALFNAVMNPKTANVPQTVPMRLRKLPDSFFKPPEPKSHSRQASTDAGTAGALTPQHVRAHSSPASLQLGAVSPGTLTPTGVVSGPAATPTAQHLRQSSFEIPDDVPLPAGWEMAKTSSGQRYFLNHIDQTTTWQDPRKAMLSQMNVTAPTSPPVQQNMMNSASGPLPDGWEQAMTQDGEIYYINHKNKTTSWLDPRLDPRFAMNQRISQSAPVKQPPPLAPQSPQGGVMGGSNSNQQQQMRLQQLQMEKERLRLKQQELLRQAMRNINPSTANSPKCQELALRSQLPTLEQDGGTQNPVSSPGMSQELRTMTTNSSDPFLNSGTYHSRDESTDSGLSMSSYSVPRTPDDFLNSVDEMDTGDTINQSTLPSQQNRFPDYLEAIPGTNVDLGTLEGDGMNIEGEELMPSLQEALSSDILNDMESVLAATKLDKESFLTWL

Target: T1, Flag-tagged TWF2 (Twinfilin actin-binding protein 2), wild type, overexpressed in 786-O cells (human) (UniProt Q6IBS0)
T1 sequence: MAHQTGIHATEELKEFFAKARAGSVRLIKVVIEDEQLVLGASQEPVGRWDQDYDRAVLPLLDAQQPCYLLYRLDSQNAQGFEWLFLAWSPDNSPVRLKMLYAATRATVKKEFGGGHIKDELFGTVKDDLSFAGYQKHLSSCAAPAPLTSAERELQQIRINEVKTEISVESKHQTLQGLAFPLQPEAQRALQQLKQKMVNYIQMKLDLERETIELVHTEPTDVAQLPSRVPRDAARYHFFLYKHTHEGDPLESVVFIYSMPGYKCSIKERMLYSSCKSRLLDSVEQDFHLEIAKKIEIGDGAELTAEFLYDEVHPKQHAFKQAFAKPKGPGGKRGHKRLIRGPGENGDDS
Test: affinity purification with mass spectrometry; TWF2-Flag overexpressed in 786-O cells; lysate on anti-Flag magnetic beads overnight at 4 °C, eluted with Flag peptide; silver-stained SDS-PAGE, band at about 70 kDa cut out and read by LC-MS

“Yes-associated protein (YAP), endogenous in RCC cells (from UniProt P46937 1-504)” was tested, and the binding was “binds”.
